Hit rate of the full screen: of about 400,000 compounds, about 13,000 (3.2%) were called active. Inconclusive results, whose numbers are uncertain, are shown with a selection of clear calls. The call rests on the fitted dose curve; in most records, active means well fitted cell-killing curve with a large enough effect; inconclusive means small, poorly fitted or top-dose-only effect, or effect the other way; inactive means flat fitted curve, though single readings scatter. Where the call is inconclusive, the potency comes from a doubtful curve fit.
assay: qHTS assay for MDR1-selective chemotherapeutics: Primary screen using the drug-selected MDR subline cells KB-V1; conditions: KB-V1 MDR cells viability, CellTiter-Glo, 72 h; activity change, negative = cytotoxicity: at 46.1 µM (top of the series); further: nearly all actives have a fitted effect of over 60% in size
Outline: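 KB-V1 cells (P-gp-expressing MDR subline of KB-3-1) in phenol-red-free DMEM with 10% FBS were exposed to library compounds over a concentration series for 72 h at 37 degrees C. Viability read by CellTiter-Glo luminescence; concentration-effect curves fitted after normalization.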
On the % scale 0 is the no-effect control and ±100 the full control effect; potency means the concentration at half of the fitted maximal effect.

Row | Structure (SMILES) | Potency | activity change, negative = cytotoxicity
1 | CCOC(=O)c1c(NC(=O)CSc2n[nH]c(CNc3ccccc3)n2)sc(C)c1C | inconclusive: 13 µM [cytotoxic, partial curve] | –
2 | c1ccc(-c2csc3ncnc(N4CCc5ccccc5C4)c23)cc1 | active: 16.4 µM | –
3 | O=C(NCC1CC1)c1ccc2nc(-c3ccoc3)c(-c3ccoc3)nc2c1 | – | inactive: -16.8%
4 | Cc1sc2ncn(CC(=O)NCCCC(=O)N3CCCCC3)c(=O)c2c1C | – | inactive: -12.8%
5 | O=C1CC(C(=O)N(c2cccc(F)c2)C(C(=O)NC2CCCC2)c2ccccn2)CS1 (stereo unspecified) | – | inactive: -13.5%
6 | COc1cccc(C(=O)Nc2ccc(S(=O)(=O)Nc3cc(C)nc(C)n3)cc2)c1 | inconclusive: 18.4 µM [rising, partial curve] | –
7 | COc1ccccc1NC(=O)c1c([N+](=O)[O-])cnn1C | inconclusive: 1.46 µM [rising, partial curve, poor fit] | –
8 | O=C(c1cccc(Cl)c1)N1CCN(c2ncnc3c2cnn3-c2ccccc2)CC1 | – | inactive: 1.33%
9 | FC(F)(F)c1cnc(NNC(=S)Nc2ccccc2)c(Cl)c1 | inconclusive: 18.4 µM [cytotoxic, single point] | –
10 | COc1cc(/C=N/N(C)C)ccc1OC(=O)c1ccco1 | – | inactive: -0.761%
11 | Cc1ccc(S(=O)(=O)N(C)C)cc1NC(=O)CCc1c[nH]c2ccccc12 | inconclusive: 29.1 µM [cytotoxic, single point] | –
12 | O=C(CCc1nc2ccccc2[nH]1)Nc1ccc2c(c1)OCO2 | inconclusive: 16.4 µM [cytotoxic, single point] | –
13 | CCOc1cc(-c2nc(C)c(C(C)=O)n2O)ccc1OCC(=O)Nc1cccc(C)c1 | inconclusive: 2.59 µM [cytotoxic, full curve] | –
14 | C[C@@H]1CN([C@@H](C)CO)C(=O)c2cc(NC(=O)C3CCCCC3)ccc2O[C@@H](C)CCCCO[C@@H]1CN(C)C(=O)CCCN(C)C | – | inactive: 22.3%
15 | Cc1cccn2c(=O)c(C=NCCO)c(NCc3ccco3)nc12 | inconclusive: 3.66 µM [cytotoxic, partial curve, poor fit] | –
16 | CCOC(=O)C1CCN(C(=S)NC2CC3C=CC2C3)CC1 (stereo unspecified) | – | inactive: 13.4%
17 | COc1ccccc1-c1nc2ccccc2nc1-c1ccccc1 | – | inactive: -1.18%
18 | O=C(c1ccc(S(=O)(=O)c2ccccc2Cl)c([N+](=O)[O-])c1)N1CCCCCC1 | active: 2.31 µM | –
19 | O=CC(=O)c1ccc(Br)cc1 | inconclusive: 29.1 µM [rising, single point] | –
20 | COc1cc(C)c(NC(c2ccccc2)c2ccccc2)cc1OC | inconclusive: 23.1 µM [cytotoxic, single point] | –
21 | COC(=O)C1=CO[C@@H](O[C@@H]2OC(CO)[C@@H](O)[C@@H](O)[C@@H]2O)C2C1CC[C@]2(C)O (stereo partly specified) | inconclusive: 13 µM [rising, single point] | –
22 | CCOc1ccc(NS(=O)(=O)c2ccc(-c3cnc(C4CC4)o3)cc2)cc1 | active: 16.4 µM | –
23 | CC(=O)Oc1cc2c(cc1Cl)C1(CC(c3ccccc3Cl)O2)CC(C)(C)NC(=S)N1 (stereo unspecified) | inconclusive: 29.1 µM [cytotoxic, single point] | –

Row | Structure (SMILES) | Potency | activity change, negative = cytotoxicity
24 | COc1ccc(NCC(=O)NN=C2CCS(=O)(=O)c3ccc(F)cc32)cc1 | – | inactive: 0%
25 | CN(C)S(=O)(=O)c1cccc(NC(=O)c2cccc(S(=O)(=O)N3CCCCC3)c2)c1 | active: 18.4 µM | –
26 | CCCCCC1CCC(C(=O)NNC(=S)NCC)CC1 (stereo unspecified) | active: 14.6 µM | –
27 | NC(=NCCc1ccccc1)NC(=O)c1cc(Cl)ccc1O | inconclusive: 14.6 µM [cytotoxic, partial curve, poor fit] | –
28 | COc1ccc(CCNC(=O)c2cc(S(=O)(=O)N3CCc4ccccc43)ccc2F)cc1OC | inconclusive: 7.31 µM [cytotoxic, partial curve] | –
29 | C=CCn1c(=S)[nH]c2cc(-c3ccccc3)sc2c1=O | inconclusive: 2.91 µM [cytotoxic, partial curve, poor fit] | –
30 | Cc1ccc(S(=O)(=O)N2CCCC(C)C2)cc1 (stereo unspecified) | – | inactive: -5.4%
31 | COc1ccc(CCN2C(=O)C(Oc3ccccc3C)C2c2ccc3c(c2)OCO3)cc1 (stereo unspecified) | active: 10.3 µM | –
32 | CCC(=O)N1CCC1(C)C(=O)Nc1cccc(OC)c1OC (stereo unspecified) | – | inactive: 0.617%
33 | COC(=O)C1=C2SC(C)C(=O)N2C(N)=C(C#N)C1c1ccc(OC)c(OC)c1 (stereo unspecified) | inconclusive: 29.1 µM [rising, single point] | –
34 | COc1cccc(CN(C)C(=O)c2cc(COc3ccc4ncccc4c3)on2)c1 | active: 4.11 µM | –
35 | O=C1[C@H]2[C@@H](/C=C/c3ccccc3)N3C(=O)CN(Cc4ccccn4)C(=O)[C@@]3(Cc3ccccc3)[C@H]2C(=O)N1c1ccccc1 | inconclusive: 18.4 µM [rising, single point] | –
36 | CN(c1ccccc1)S(=O)(=O)c1ccc(C(=O)Nc2nnc(-c3ccc(F)cc3)o2)cc1 | inconclusive: 18.4 µM [cytotoxic, single point] | –
37 | Nc1cc(S(=O)(=O)N2CCCCC2)ccc1Oc1ccc(Cl)cc1 | inconclusive: 25.9 µM [cytotoxic, single point] | –
38 | CC(C)(C)OC(=O)Nc1ccccc1-n1nnnc1C(C(=O)c1ccc(F)cc1)N1CCOCC1 (stereo unspecified) | – | inactive: -8.5%
39 | CCOC(=O)[C@]12CCC=C1N(Cc1cccc3ccccc13)C(=O)[C@H](CC(=O)NCCc1ccccc1OC)C2 | active: 14.6 µM | –
40 | OC(COC(c1ccc(Cl)cc1)c1ccc(Cl)cc1)CN1CCN(c2ccccn2)CC1 (stereo unspecified) | inconclusive: 29.1 µM [cytotoxic, single point] | –
41 | Cc1nnc(SCC(=O)N2c3ccccc3C(C)(c3ccccc3)CC2(C)C)s1 (stereo unspecified) | active: 8.2 µM | –
42 | O=C(NCc1ccccc1)C1CCN(S(=O)(=O)c2ccc(N3CCCC3=O)cc2)CC1 | – | inactive: 2.25%
43 | CC(=O)C(/C=N/c1cc(-c2ccc(C)cc2)nn1-c1ccccc1)=C(\C)O | inconclusive: 20.6 µM [cytotoxic, partial curve, poor fit] | –
44 | CCCOc1ccc(C2=NNC(=O)CC2)cc1 | active: 0.206 µM | –
45 | O=C(C[n+]1ccc2ccccc2c1)c1ccc(F)cc1 | inconclusive: 29.1 µM [cytotoxic, single point] | –
46 | CC1=[N+](C)N(c2ccccc2)C(=O)C1N=Cc1ccccc1Cl (stereo unspecified) | inconclusive: 29.1 µM [rising, single point] | –

Some values from the list.
For Potency, `Cc1cccn2c(=O)c(C=NCCO)c(NCc3ccco3)nc12` has inconclusive: 3.66 µM [cytotoxic, partial curve, poor fit]
For Potency, `Nc1cc(S(=O)(=O)N2CCCCC2)ccc1Oc1ccc(Cl)cc1` has inconclusive: 25.9 µM [cytotoxic, single point]

From compound 33 up to 34, as listed above:
Row | Structure (SMILES) | Potency | activity change, negative = cytotoxicity
33 | COC(=O)C1=C2SC(C)C(=O)N2C(N)=C(C#N)C1c1ccc(OC)c(OC)c1 (stereo unspecified) | inconclusive: 29.1 µM [rising, single point] | –
34 | COc1cccc(CN(C)C(=O)c2cc(COc3ccc4ncccc4c3)on2)c1 | active: 4.11 µM | –
